In patent US20060211744A1, “3-Pyridinecarboxamide reduces nerve degeneration” (Children's Medical Center, priority 2005, published 2006):
At least one compound was matched to its structure with a doubt left.

How the values were obtained:
Assay type in all cases: cell-based
[1] = test system: transected axons from cultured dorsal root ganglia (DRG); test: HPLC measurement of NAD and ATP levels in degenerating axons of cultured DRG
Method: (§1) As a first step in examining the role of NAD in Wallerian degeneration, we used an ultra-sensitive high-performance liquid chromatography (HPLC) method (Micheli and Sestini, 1997) to measure the concentration of NAD and its derivatives in degenerating axons. To do this, the acidic lysates were prepared from axonal segments collected at different time points after transecting the axons from cultured dorsal root ganglia (DRG) and resolved by reverse-phase chromatography. 2 hr after axotomy, when the transected axons were still morphologically indistinguishable from their uncut controls, NAD levels began to decrease. This NAD decrease continued over the course of degeneration, reaching about 50% at 4 hr post-axotomy, to almost undetectable levels by 6 hr after axotomy, when early morphological signs of degeneration began to develop. […] By a similar approach of alkaline extraction (Micheli and Sestini, 1997), it has been difficult for us to detect NADH in the axonal extracts, presumably due to the low abundance of NADH and the high NAD/NADH ratio reported in mammalian cells (Zhang et al., 2002, Kasischke et al., 2004, Kannurpatti et al., 2004).
In addition to acting as co-factors for Sirt1 and other NAD-dependent enzymes, NAD is also essential for ATP-synthesizing redox reactions which are involved in glycolysis and oxidative phosphorylation (Shibata et al., 1991). […]

[2] = test system: superior sympathetic ganglia (SCGs) and other neuronal types expressing mutant Nmnat1; test: Axon degeneration induced by over-expression of mutant Nmnat1 in cultured neurons; conditions: no axotomy
Excerpt: We next examined whether decreasing neuronal NAD levels is sufficient to induce axon degeneration in intact neurons. By sequence alignment, a conserved (T/H)XGH motif has been identified in the N-terminus of all Nmnat proteins from different species (Saridakis et al., 2001). This motif likely represents a critical active site, as a mutant enzyme with a point mutation at the last amino acid (H to A) loses its catalytic activity but retains its ability to bind the nicotinamide mononucleotide (NMN) substrate (Saridakis et al., 2001). Thus, we made a mutant Nmnat1 in which the critical histidine residue at amino acid 24 in this active site motif was substituted with alanine. Since most of the NAD in mammalian cells, except for liver and kidney cells, is synthesized by recycling degraded NAD products such as nicotinamide via the salvage pathway (Shibata et al., 1991, Rongvaux et al., 2003), over-expressing this mutant Nmnat1 would be expected to sequester the limited substrates, thus decreasing cellular NAD levels. […] As a result, neurons expressing this mutant Nmnat1 developed signs of axon degeneration in the absence of axotomy, concomitant with decreases in neuronal NAD and ATP levels.
In addition, a caspase inhibitor Z-DEVD-fink also had no effect on the axon degeneration induced by this mutant Nmnat1 expression.

[3] = test system: cultured hippocampal neurons; test: Synaptic loss and process degeneration in cultured hippocampal neurons (dominant-negative Nmnat1)
Excerpt: We next attempted to examine whether decreasing NAD levels can induce similar “dying-back” axon degeneration in neurons with established synaptic connections. Such experiments might allow us to assess whether the degenerative processes in axons and other neuronal structures, including synaptic structures and dendritic processes, share similar mechanisms. To do this, we introduced both wild type and dominant negative Nmnat1 into cultured hippocampal neurons at 20 days in vitro (DIV 20), when their synaptic connections have formed and matured (Brewer et al. 1993), and examined their effects on axons as well as dendrites and synapses. […]
To monitor changes in synaptic structures, we co-infected DIV20 neurons with HSV expressing YFP and wild type or the mutant Nmnat1, and quantified both spine density and the length and branching of axons and dendrites. […] Dendrite length and branching patterns were analyzed using Sholl's method of regularly spaced concentric circles centered on the neuronal soma (Sholl, 1953). […]
In the experiments described above, we also performed immunostaining with antibodies against the presynaptic marker bassoon, and found a decrease of positively-stained synaptic structures. However, due to the complex morphology of the axons that makes it extremely difficult to quantify the axonal length in DIV20 hippocampal neurons, we […]. […]

[4] = test system: cultured DRG neurons (transected axons); test: Axon degeneration after transection of axons of cultured DRG neurons (Wallerian degeneration)
Method: as §1
To definitively determine whether preventing the local decrease in NAD levels could mediate axon protection, we employed soma-free axonal segments that have been separated from their soma as models to examine the protective effects of different pharmacological treatments. It has been shown that exogenously provided NAD, when directly added to the culture medium of DRG neurons, can be transported across the axonal membrane (Araki et al., 2004). Thus, we first examined the protective effects of different concentrations of NAD added to the culture before or after axon transection and removal of ganglia.
To further assess the local and nuclear contribution to such an NAD-dependent protection, we compared the protective effects of NAD provided at different time points. […] In this respect, our results are inconsistent with those shown by Araki et al (2004), possibly due to the different concentrations of NAD used in our studies (1-20 mM) and by Araki et al (0.1 to 1 mM).
We next attempted to explore the possible mechanisms underlying this local NAD-dependent axon protection. […] A possible explanation for this discrepancy between Araki et al (2004) and our results is the different approaches used to block Sirt1 activity. […] It is known that […], other sirturins exist and some of these proteins are localized in the cytoplasmic compartment (Onyango et al., 2002; North et al., 2003).

NC(=O)c1ccc[n+]([C@@H]2O[C@H](COP(=O)([O-])OP(=O)(O)OC[C@H]3O[C@@H](n4cnc5c(N)ncnc54)[C@H](O)[C@@H]3O)[C@@H](O)[C@H]2O)c1 [NAD, nicotinamide adenine dinucleotide]
axonal NAD levels after transection (HPLC) ([1]; exogenously applied): delayed the decrease of axonal NAD levels
ATP levels in transected axons separated from their somas ([1]; exogenously provided): delayed the decrease of ATP levels
axon degeneration induced by mutant Nmnat1 expression [2]: could be prevented
changes in axons and presynaptic structures induced by dominant-negative Nmnat1 ([3]; DIV12 hippocampal neurons): rescued
synaptic loss and neurite degeneration induced by dominant-negative Nmnat1 ([3]; DIV20 hippocampal neurons): efficiently rescued
axon degeneration after transection ([4]; 1-20 mM added at the time of axon transection): efficiently prevented axon degeneration
axon degeneration after transection ([4]; NAD pre-treatment 24 hr prior to transection): delayed axon degeneration
protective effect on axon degeneration ([4]; provided at 7 hr after transection): failed to show any significant protective effect
protective effect, pre-treatment 24 hr prior compared with addition at transection or up to 3 hr post-transection ([4]; same concentrations): similarly protective
